Measured values reported in PMC6465247.
No constants are given. Whether binding was seen depends on the method and setting. For some assays here: A result given as binding can be weak or reduced; the word gives no strength. Sequences can lack the tags named with a protein. For some assays here: In cells and extracts the contact can be indirect. One block for each molecule: values may come before it.

Sequences of proteins named here, by UniProt entry; tags and fusion partners are left off. A change or cut given only in a name is not applied to a line headed by its entry.
UniProt B6EUB3: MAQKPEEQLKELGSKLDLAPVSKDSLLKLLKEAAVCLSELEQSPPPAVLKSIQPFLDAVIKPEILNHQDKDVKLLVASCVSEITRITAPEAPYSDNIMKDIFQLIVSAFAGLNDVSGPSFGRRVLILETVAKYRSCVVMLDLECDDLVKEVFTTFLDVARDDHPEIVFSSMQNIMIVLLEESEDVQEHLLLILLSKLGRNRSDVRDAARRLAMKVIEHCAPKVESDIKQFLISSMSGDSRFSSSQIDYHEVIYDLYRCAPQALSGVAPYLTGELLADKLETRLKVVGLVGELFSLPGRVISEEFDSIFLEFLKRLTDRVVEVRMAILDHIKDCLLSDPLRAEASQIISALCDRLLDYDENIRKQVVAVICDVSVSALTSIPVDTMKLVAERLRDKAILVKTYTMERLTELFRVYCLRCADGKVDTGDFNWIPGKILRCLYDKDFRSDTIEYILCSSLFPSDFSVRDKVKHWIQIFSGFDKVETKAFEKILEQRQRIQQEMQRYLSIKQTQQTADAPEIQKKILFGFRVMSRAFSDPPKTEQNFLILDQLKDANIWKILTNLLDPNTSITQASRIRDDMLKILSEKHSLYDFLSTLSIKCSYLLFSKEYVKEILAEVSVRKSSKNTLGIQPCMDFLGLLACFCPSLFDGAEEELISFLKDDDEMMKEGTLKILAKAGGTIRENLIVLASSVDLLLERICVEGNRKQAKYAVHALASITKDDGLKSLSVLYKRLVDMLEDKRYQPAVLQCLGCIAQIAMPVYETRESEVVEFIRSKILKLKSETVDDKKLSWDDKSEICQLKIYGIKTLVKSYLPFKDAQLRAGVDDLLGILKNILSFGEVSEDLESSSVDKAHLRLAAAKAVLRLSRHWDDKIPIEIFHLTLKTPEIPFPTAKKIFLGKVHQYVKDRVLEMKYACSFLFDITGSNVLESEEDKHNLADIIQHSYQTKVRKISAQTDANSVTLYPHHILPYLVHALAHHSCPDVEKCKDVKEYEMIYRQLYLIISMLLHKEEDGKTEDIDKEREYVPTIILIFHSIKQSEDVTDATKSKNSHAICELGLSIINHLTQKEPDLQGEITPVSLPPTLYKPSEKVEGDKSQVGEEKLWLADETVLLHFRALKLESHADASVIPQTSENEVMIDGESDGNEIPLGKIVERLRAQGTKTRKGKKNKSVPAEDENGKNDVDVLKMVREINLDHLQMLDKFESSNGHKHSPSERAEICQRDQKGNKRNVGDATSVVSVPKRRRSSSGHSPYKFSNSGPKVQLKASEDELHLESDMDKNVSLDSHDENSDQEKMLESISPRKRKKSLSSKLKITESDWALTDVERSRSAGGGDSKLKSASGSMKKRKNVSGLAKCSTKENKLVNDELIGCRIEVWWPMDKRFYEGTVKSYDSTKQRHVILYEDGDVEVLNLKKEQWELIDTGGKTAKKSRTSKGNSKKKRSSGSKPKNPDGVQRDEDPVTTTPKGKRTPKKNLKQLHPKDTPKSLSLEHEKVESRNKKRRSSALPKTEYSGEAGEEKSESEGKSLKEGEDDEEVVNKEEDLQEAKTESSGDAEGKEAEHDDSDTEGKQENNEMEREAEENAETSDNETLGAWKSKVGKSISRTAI
UniProt Q53KW9: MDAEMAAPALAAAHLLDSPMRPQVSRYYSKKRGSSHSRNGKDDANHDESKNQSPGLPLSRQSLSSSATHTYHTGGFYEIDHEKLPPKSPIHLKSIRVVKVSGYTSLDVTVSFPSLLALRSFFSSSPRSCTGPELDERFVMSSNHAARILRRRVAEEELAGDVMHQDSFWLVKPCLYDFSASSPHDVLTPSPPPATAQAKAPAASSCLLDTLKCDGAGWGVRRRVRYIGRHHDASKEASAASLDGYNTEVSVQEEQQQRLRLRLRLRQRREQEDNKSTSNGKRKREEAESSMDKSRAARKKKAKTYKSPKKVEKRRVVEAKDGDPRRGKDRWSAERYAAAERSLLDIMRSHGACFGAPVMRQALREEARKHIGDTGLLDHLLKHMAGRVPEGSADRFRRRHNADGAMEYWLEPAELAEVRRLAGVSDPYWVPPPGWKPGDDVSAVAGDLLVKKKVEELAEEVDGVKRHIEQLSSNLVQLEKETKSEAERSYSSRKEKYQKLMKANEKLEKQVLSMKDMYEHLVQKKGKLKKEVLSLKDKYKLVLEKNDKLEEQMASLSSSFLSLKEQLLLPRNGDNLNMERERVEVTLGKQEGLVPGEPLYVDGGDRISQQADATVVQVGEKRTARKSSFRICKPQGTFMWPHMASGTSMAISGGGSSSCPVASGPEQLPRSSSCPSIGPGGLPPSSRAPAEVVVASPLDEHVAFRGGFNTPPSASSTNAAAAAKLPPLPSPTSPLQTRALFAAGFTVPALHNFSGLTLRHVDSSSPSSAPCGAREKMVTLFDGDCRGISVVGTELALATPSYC

Assays:
[1] = target: Arabidopsis PDS5A, yeast two-hybrid fusion used with the AM1 homologs (Arabidopsis thaliana) (UniProt B6EUB3); experiment: two-hybrid; Matchmaker Gold system (Clontech), pGADT7-GW and pGBKT7-GW fusions co-transformed into yeast AH109; growth on SD/-Leu -Trp -His
[2] = target: N-terminus of PDS5A, BiFC fusion (Arabidopsis thaliana); experiment: split reporter; BiFC and ratiometric BiFC (pBiFC-2in1-NN, YFP against RFP as reference) in tobacco leaves after Agrobacterium infiltration; imaged 2 days after infiltration
[3] = target: PDS5A, BiFC fusion (Arabidopsis thaliana) (UniProt B6EUB3); experiment: as above
[4] = target: C-terminus of PDS5A, BiFC fusion (Arabidopsis thaliana); experiment: as above
[5] = target: PDS5A, BiFC fusion (Arabidopsis thaliana) (UniProt B6EUB3); experiment: split reporter; competitive BiFC in tobacco leaf cells: pBiFC-2in1-NN pair co-infiltrated with SWI1-mTurquiose2 or WAPL1-mTurquiose2 (35S promoter)
[6] = target: PDS5A^810-1607, yeast two-hybrid fusion (Arabidopsis thaliana) (UniProt B6EUB3); experiment: two-hybrid; Matchmaker Gold system (Clontech), pGADT7-GW and pGBKT7-GW fusions co-transformed into yeast AH109; growth on SD/-Leu -Trp -His

binding [1]: binds
Molecule: AMEIOTIC 1 of rice (OsAM1), yeast two-hybrid fusion (from UniProt Q53KW9)

binding [2]: binds
binding [3]: binds
binding [4]: no binding
binding [5]: binds
B1: WAPL1, BiFC fusion (protein, UniProt F4I7C7 1-930)
chain: MIIVKLTANRICCSLLQLRRSYEHFYIFVFLPEIPLFRFSHLKLFPKNLQIQRLVSAMMERTYGRRKPGIPRTLSDSLNDSVSQTEYLSSSSSPDIEPIDYSLLPFSSQESSSLWHSSSRSNFREDYPQNGGVVRRAKRVRNGAEAAAFTSTLLEAQEFGELMEHEDEVNFALDGLRKGHQLRIRRASLSSLLSICASQHQRRSLRAQGISQSIIDAILVLSLDDIPSNLAAATLFFALTADGQDEHFMESPKCIKFLIKLLKPVIVTSTEGKPRNIGFKLLSLLKDVDAARDPVKMDDPSSSDILSRVQELLVNCKEMRLNDSYITETTRPELSTKWVALLAMERACVSKISFDDTSGSVKKTGGNFKEKLRELGGLDAVLEVVMDCHAVMERWVEYDALSVQEKKDNLHKQSLMLLLKCLKIMENATFLSTDNQNHLLGFKKCLGSHDSRMSFTELTISVIKMLSGLHLRGGFSSPNTNNVNSHYSNGGNHDSVLEANRKVTNEVVTISSDTYSTVGSISTRNGSVSQRSQSIIHLDFSPTSMSGSQSSVSGNEPTTSKTRVGSTISGSFAGRLASLGSDIARTTLRTTQAGEPICKKFGEFAPPEESEDPFAFDLEDYKPSKWAVVSVNQKKSRAQKKKGCYKQSKDESLYQLFSSQEESSNHRLNSQEESSNRDCSTSLQPSHCTNDIDEECLCLLFDCLLTAVKVLMNLTNDNVVGCRQVGGCRGLESMAELIARHFPSFTRSQLFSEMEKTGSSHQKKDKYLTDQELDFLVAILGLLVNLVERDGVNRSRLASASVPITKPEELQESEQEMIPLLCSIFLTNQGSAETKEETTTFTLDDEEAVLEGEKEAEKMIVEAYSALLLAFLSTESRSIRNSIKDYLPKRNLAILVPVLERFVAFHMTLNMIPPETHKAVMGVIESCKSP

binding [1]: binds
B4: AMEIOTIC 1 of maize (ZmAM1), yeast two-hybrid fusion (protein, UniProt C0RWW9 1-780)
chain: MDVETVQAGPALAAHLQLQASPKPQVKKYYFKKKTSSSHSRNGKDDVNHDSTIQPRSPLSRQSLTFDAIPTYHAGAFYEIDHDKLPPKSPIHLKSIRVVKVSECTNLDITVKFPSLQALRSFFSSYPAPGTGPELDERFVMSSNHAARILRRRVTEEELEGEVQQDSFWLIKPRLYDFAAPQQVPSRTLCLPPPPAPPAATLGLTADSCLLTTLKCDGAGWGMRRRVRYIGRHRDEAPKEASVDGYDTESSVREVQQPPATQEVKRSERNCKRKREAEASSKDNNGDEGKKNNKVQGASKKISKKAKKRTVESKDGDPRHGKDRWSAERYAAAEKSLLNIMRSRDARFGAPVMRQVLREEARKHIGDTGLLDHLLKHMAGRVPEGSVHRFRRRHNADGAMEYWLEPAELAEVRKQAGVSDPYWVPPPGWKPGDDVSLVAGDILVKRQVEELTEEVNGVKRQMEQLLCKDDGDFGAERDYSSLKEKYQRAVRANEKLEKQVLCLKDMCENVVQMNGELKKEVSAFKEKYEHIADKNDKLEEQVTYLSSSFLSFKDQLVVALKLELAPSEAVPRTALFVASGEQMTGTVIQGGQDRAERKSSFRVCKPQGKFLLPSMASGMTIGRGASSTCPAAATPGPGIPRSTSFPSMPGLPRSSRGPVEVVAAASGLDEHVMFGAHFSTPPSASSTNDAAKLQLSLPSPRSPLQPQKLFDTVTAAASGFSPQKLMHFSGLTRRDVDTSSSSSGACGSGLLEGKRVLFDADAGGISAVGTELALATPSYC

binding [6]: no binding
B6: WINGS APART-LIKE 1 (WAPL1), yeast two-hybrid fusion (protein, UniProt F4I7C7 1-930)
chain: MIIVKLTANRICCSLLQLRRSYEHFYIFVFLPEIPLFRFSHLKLFPKNLQIQRLVSAMMERTYGRRKPGIPRTLSDSLNDSVSQTEYLSSSSSPDIEPIDYSLLPFSSQESSSLWHSSSRSNFREDYPQNGGVVRRAKRVRNGAEAAAFTSTLLEAQEFGELMEHEDEVNFALDGLRKGHQLRIRRASLSSLLSICASQHQRRSLRAQGISQSIIDAILVLSLDDIPSNLAAATLFFALTADGQDEHFMESPKCIKFLIKLLKPVIVTSTEGKPRNIGFKLLSLLKDVDAARDPVKMDDPSSSDILSRVQELLVNCKEMRLNDSYITETTRPELSTKWVALLAMERACVSKISFDDTSGSVKKTGGNFKEKLRELGGLDAVLEVVMDCHAVMERWVEYDALSVQEKKDNLHKQSLMLLLKCLKIMENATFLSTDNQNHLLGFKKCLGSHDSRMSFTELTISVIKMLSGLHLRGGFSSPNTNNVNSHYSNGGNHDSVLEANRKVTNEVVTISSDTYSTVGSISTRNGSVSQRSQSIIHLDFSPTSMSGSQSSVSGNEPTTSKTRVGSTISGSFAGRLASLGSDIARTTLRTTQAGEPICKKFGEFAPPEESEDPFAFDLEDYKPSKWAVVSVNQKKSRAQKKKGCYKQSKDESLYQLFSSQEESSNHRLNSQEESSNRDCSTSLQPSHCTNDIDEECLCLLFDCLLTAVKVLMNLTNDNVVGCRQVGGCRGLESMAELIARHFPSFTRSQLFSEMEKTGSSHQKKDKYLTDQELDFLVAILGLLVNLVERDGVNRSRLASASVPITKPEELQESEQEMIPLLCSIFLTNQGSAETKEETTTFTLDDEEAVLEGEKEAEKMIVEAYSALLLAFLSTESRSIRNSIKDYLPKRNLAILVPVLERFVAFHMTLNMIPPETHKAVMGVIESCKSP

More lines, now with the values behind:

B2: SWI1, BiFC fusion (protein, UniProt Q9FGN8 1-639)
chain: MSSTMFVKRNPIRETTAGKISSPSSPTLNVAVAHIRAGSYYEIDASILPQRSPENLKSIRVVMVSKITASDVSLRYPSMFSLRSHFDYSRMNRNKPMKKRSGGGLLPVFDESHVMASELAGDLLYRRIAPHELSMNRNSWGFWVSSSSRRNKFPRREVVSQPAYNTRLCRAASPEGKCSSELKSGGMIKWGRRLRVQYQSRHIDTRKNKEGEESSRVKDEVYKEEEMEKEEDDDDGNEIGGTKQEAKEITNGNRKRKLIESSTERLAQKAKVYDQKKETQIVVYKRKSERKFIDRWSVERYKLAERNMLKVMKEKNAVFGNSILRPELRSEARKLIGDTGLLDHLLKHMAGKVAPGGQDRFMRKHNADGAMEYWLESSDLIHIRKEAGVKDPYWTPPPGWKLGDNPSQDPVCAGEIRDIREELASLKRELKKLASKKEEEELVIMTTPNSCVTSQNDNLMTPAKEIYADLLKKKYKIEDQLVIIGETLRKMEEDMGWLKKTVDENYPKKPDSTETPLLLEDSPPIQTLEGEVKVVNKGNQITESPQNREKGRKHDQQERSPLSLISNTGFRICRPVGMFAWPQLPALAAATDTNASSPSHRQAYPSPFPVKPLAAKRPLGLTFPFTIIPEEAPKNLFNV
binding [3]: binds
binding [5]: binds

B3: SWI1-mTurquiose2 (protein, UniProt Q9FGN8 1-639)
chain: MSSTMFVKRNPIRETTAGKISSPSSPTLNVAVAHIRAGSYYEIDASILPQRSPENLKSIRVVMVSKITASDVSLRYPSMFSLRSHFDYSRMNRNKPMKKRSGGGLLPVFDESHVMASELAGDLLYRRIAPHELSMNRNSWGFWVSSSSRRNKFPRREVVSQPAYNTRLCRAASPEGKCSSELKSGGMIKWGRRLRVQYQSRHIDTRKNKEGEESSRVKDEVYKEEEMEKEEDDDDGNEIGGTKQEAKEITNGNRKRKLIESSTERLAQKAKVYDQKKETQIVVYKRKSERKFIDRWSVERYKLAERNMLKVMKEKNAVFGNSILRPELRSEARKLIGDTGLLDHLLKHMAGKVAPGGQDRFMRKHNADGAMEYWLESSDLIHIRKEAGVKDPYWTPPPGWKLGDNPSQDPVCAGEIRDIREELASLKRELKKLASKKEEEELVIMTTPNSCVTSQNDNLMTPAKEIYADLLKKKYKIEDQLVIIGETLRKMEEDMGWLKKTVDENYPKKPDSTETPLLLEDSPPIQTLEGEVKVVNKGNQITESPQNREKGRKHDQQERSPLSLISNTGFRICRPVGMFAWPQLPALAAATDTNASSPSHRQAYPSPFPVKPLAAKRPLGLTFPFTIIPEEAPKNLFNV
binding [5]: binds

B5: SWITCH 1/DYAD (SWI1), yeast two-hybrid fusion (protein, UniProt Q9FGN8 1-639)
chain: MSSTMFVKRNPIRETTAGKISSPSSPTLNVAVAHIRAGSYYEIDASILPQRSPENLKSIRVVMVSKITASDVSLRYPSMFSLRSHFDYSRMNRNKPMKKRSGGGLLPVFDESHVMASELAGDLLYRRIAPHELSMNRNSWGFWVSSSSRRNKFPRREVVSQPAYNTRLCRAASPEGKCSSELKSGGMIKWGRRLRVQYQSRHIDTRKNKEGEESSRVKDEVYKEEEMEKEEDDDDGNEIGGTKQEAKEITNGNRKRKLIESSTERLAQKAKVYDQKKETQIVVYKRKSERKFIDRWSVERYKLAERNMLKVMKEKNAVFGNSILRPELRSEARKLIGDTGLLDHLLKHMAGKVAPGGQDRFMRKHNADGAMEYWLESSDLIHIRKEAGVKDPYWTPPPGWKLGDNPSQDPVCAGEIRDIREELASLKRELKKLASKKEEEELVIMTTPNSCVTSQNDNLMTPAKEIYADLLKKKYKIEDQLVIIGETLRKMEEDMGWLKKTVDENYPKKPDSTETPLLLEDSPPIQTLEGEVKVVNKGNQITESPQNREKGRKHDQQERSPLSLISNTGFRICRPVGMFAWPQLPALAAATDTNASSPSHRQAYPSPFPVKPLAAKRPLGLTFPFTIIPEEAPKNLFNV
binding [6]: no binding
